Measurements reported in PubChem BioAssay AID1259308 (NCATS, 2017).
This is a random part of about 59,000 deposited reagents. Over the whole deposit, about 1,510 (2.6%) were called active. 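Calls use total luciferase alone and ignore viability, so some active siRNAs may act by altering cell number.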 The numbers tell different reagents against one gene apart. Not all columns of the deposit are shown.

Test: 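Knock-downs that increase output of a recombinant reporter protein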 (primary screen)
Cell system: human HEK293 embryonic kidney cells stably expressing firefly luciferase (HEK-CMV-Luc2-Hygro)
Reagent: single siRNA against human genes, 0.8 pmol siRNA per well
Time to read-out: 72 h
Measurement: 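Luciferase light (ONE-Glo) measured on one replicate plate set and viability (CellTiter-Glo) on the other, scaled to a negative control siRNA, with robust z-scores and luciferase per cell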
Scale: total luciferase, z-score: higher = more reporter protein produced
Hit rule: 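Active when the median/MAD z-score for overall luciferase is greater than 3; a gene was taken forward for validation with new siRNAs if at least two of its three siRNAs passed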
Calls: active = raised luciferase; inactive = no rise

total luciferase, z-score, by gene and reagent
CHSY3 (GeneID 337876): #1 0.396 inactive; #2 -0.0614 inactive; #3 3.05 active
CFAP52 (GeneID 146845): #1 1.5 inactive; #2 -0.191 inactive; #3 0.785 inactive
KIF4B (GeneID 285643): #1 -0.2 inactive; #2 -1.47 inactive; #3 1.02 inactive
CLASP1 (GeneID 23332): #1 1.25 inactive; #2 0.515 inactive; #3 0.989 inactive
CEACAM21 (GeneID 90273): #1 2.19 inactive; #2 0.314 inactive; #3 -0.53 inactive
ZSCAN20 (GeneID 7579): #1 -1.67 inactive; #2 -1.08 inactive; #3 -0.515 inactive
FLJ37786 (retired record) (GeneID 642691): #1 0.483 inactive; #2 -0.0451 inactive; #3 1.22 inactive
LIN28B (GeneID 389421): #1 1.7 inactive; #2 -2.2 inactive; #3 -0.538 inactive
SSBP3 (GeneID 23648): #1 0.0825 inactive; #2 0.346 inactive; #3 -0.116 inactive
SLFN13 (GeneID 146857): #1 -1.97 inactive; #2 -0.324 inactive; #3 0.163 inactive
PACS1 (GeneID 55690): #1 1.48 inactive; #2 -0.0643 inactive; #3 0.298 inactive
OR6M1 (GeneID 390261): #1 -0.705 inactive; #2 1.2 inactive; #3 0.691 inactive
CNDP1 (GeneID 84735): #1 -2.13 inactive; #2 -0.693 inactive; #3 -2.41 inactive
SALL2 (GeneID 6297): #1 2 inactive; #2 -0.753 inactive; #3 -0.987 inactive
GPLD1 (GeneID 2822): #1 2.27 inactive; #2 -0.397 inactive; #3 -0.38 inactive
WASHC2EP (GeneID 100421577): #1 -1.85 inactive; #2 2.19 inactive; #3 -0.131 inactive
THSD4 (GeneID 79875): #1 -1.89 inactive; #2 0.736 inactive; #3 -0.488 inactive
CDC42 (GeneID 998): #1 -1.44 inactive; #2 -0.392 inactive; #3 -0.249 inactive
GZMA (GeneID 3001): #1 3.21 active; #2 -2.3 inactive; #3 0.153 inactive
